# In the supplement of paper PMC8728848:
# The other results are listed elsewhere or left out.
# Tests used:
# Experiment in all cases: glycan array binding signal (z-score within array); higher = stronger binding
# Details in all cases: glycan notation: IUPAC condensed, linker removed
# [1] = molecular target: Gal(b1-3)GlcNAc(b1-2)Man(a1-3)[Gal(b1-3)GlcNAc(b1-2)Man(a1-6)]Man(b1-4)GlcNAc(b1-4)[Fuc(a1-6)]GlcNAc
# Outline: (§1)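 From the Consortium for Functional Glycomics database, 3228 arrays were curated, keeping only those whose protein sequence was available. Binding is given as a within-array Z-score averaged across arrays sharing a protein sequence and across linkers. Negative Z-scores can be read as non-binding.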
# [2] = molecular target: Gal(b1-3)GlcNAc(b1-2)Man(a1-3)[GlcNAc(b1-4)][Gal(b1-3)GlcNAc(b1-2)Man(a1-6)]Man(b1-4)GlcNAc(b1-4)GlcNAc
# Outline: as §1
# [3] = molecular target: Gal(b1-3)GlcNAc(b1-2)[Gal(b1-3)GlcNAc(b1-6)]Man(a1-6)[Gal(b1-3)GlcNAc(b1-2)Man(a1-3)]Man(b1-4)GlcNAc(b1-4)GlcNAc
# Outline: as §1
# [4] = molecular target: Gal(b1-3)GlcNAc(b1-3)Gal(b1-3)GlcNAc
# Outline: as §1
# [5] = molecular target: Gal(b1-3)GlcNAc(b1-3)Gal(b1-4)Glc
# Outline: as §1
# [6] = molecular target: Gal(b1-3)GlcNAc(b1-3)Gal(b1-4)GlcNAc
# Outline: as §1
# [7] = molecular target: Gal(b1-3)GlcNAc(b1-3)Gal(b1-4)GlcNAc(b1-2)Man(a1-3)[Gal(b1-3)GlcNAc(b1-3)Gal(b1-4)GlcNAc(b1-2)Man(a1-6)]Man(b1-4)GlcNAc(b1-4)GlcNAc
# Outline: as §1
# [8] = molecular target: Gal(b1-3)GlcNAc(b1-3)Gal(b1-4)GlcNAc(b1-2)[Gal(b1-3)GlcNAc(b1-3)Gal(b1-4)GlcNAc(b1-6)]Man(a1-6)[Gal(b1-3)GlcNAc(b1-3)Gal(b1-4)GlcNAc(b1-2)Man(a1-3)]Man(b1-4)GlcNAc(b1-4)[Fuc(a1-6)]GlcNAc
# Outline: as §1
# [9] = molecular target: Gal(b1-3)GlcNAc(b1-3)Gal(b1-4)GlcNAc(b1-3)Gal(b1-4)GlcNAc(b1-2)[Gal(b1-3)GlcNAc(b1-3)Gal(b1-4)GlcNAc(b1-3)Gal(b1-4)GlcNAc(b1-6)]Man(a1-6)[Gal(b1-3)GlcNAc(b1-3)Gal(b1-4)GlcNAc(b1-3)Gal(b1-4)GlcNAc(b1-2)Man(a1-3)]Man(b1-4)GlcNAc(b1-4)[Fuc(a1-6)]GlcNAc
# Outline: as §1
# [10] = molecular target: Gal(b1-3)GlcNAc(b1-3)Gal(b1-4)GlcNAc(b1-6)[Gal(b1-3)GlcNAc(b1-3)]Gal(b1-4)Glc
# Outline: as §1
# [11] = molecular target: Gal(b1-3)GlcNAc(b1-3)Gal(b1-4)[Fuc(a1-3)]GlcNAc
# Outline: as §1
# [12] = molecular target: Gal(b1-3)GlcNAc(b1-3)Gal(b1-4)[Fuc(a1-3)]GlcNAc(b1-6)[Gal(b1-3)GlcNAc(b1-3)]Gal(b1-4)Glc
# Outline: as §1
# [13] = molecular target: Gal(b1-3)GlcNAc(b1-3)GalNAc
# Outline: as §1
# [14] = molecular target: Gal(b1-3)GlcNAc(b1-6)Gal(b1-4)GlcNAc
# Outline: as §1
# [15] = molecular target: Gal(b1-3)GlcNAc(b1-6)GalNAc
# Outline: as §1
# [16] = molecular target: Gal(b1-3)GlcNAc(b1-6)[Gal(b1-3)]GalNAc
# Outline: as §1
# Gal(b1-3)GlcNAc6S = molecular target: Gal(b1-3)GlcNAc6S
# Outline: as §1
# [17] = molecular target: Gal(b1-3)[Fuc(a1-4)]GlcNAc
# Outline: as §1
# [18] = molecular target: Gal(b1-3)[Fuc(a1-4)]GlcNAc(b1-2)Man
# Outline: as §1
# [19] = molecular target: Gal(b1-3)[Fuc(a1-4)]GlcNAc(b1-2)Man(a1-3)[Gal(b1-3)[Fuc(a1-4)]GlcNAc(b1-2)Man(a1-6)]Man(b1-4)GlcNAc(b1-4)[Fuc(a1-6)]GlcNAc
# Outline: as §1
# [20] = molecular target: Gal(b1-3)[Fuc(a1-4)]GlcNAc(b1-3)Gal(b1-3)[Fuc(a1-4)]GlcNAc
# Outline: as §1
# [21] = molecular target: Gal(b1-3)[Fuc(a1-4)]GlcNAc(b1-3)Gal(b1-4)[Fuc(a1-3)]GlcNAc
# Outline: as §1
# [22] = molecular target: Gal(b1-3)[Fuc(a1-4)]GlcNAc(b1-6)GalNAc
# Outline: as §1
# [23] = molecular target: Gal(b1-3)[GlcNAc(b1-6)]GalNAc
# Outline: as §1
# [24] = molecular target: Gal(b1-3)[Neu5Ac(a2-6)]GalNAc
# Outline: as §1
# [25] = molecular target: Gal(b1-3)[Neu5Ac(a2-6)]GlcNAc(b1-4)Gal(b1-4)Glc
# Outline: as §1
# [26] = molecular target: Gal(b1-3)[Neu5Ac(b2-6)]GalNAc
# Outline: as §1
# Gal(b1-4)Gal = molecular target: Gal(b1-4)Gal
# Outline: as §1
# [27] = molecular target: Gal(b1-4)GalNAc(a1-3)[Fuc(a1-2)]Gal(b1-4)GlcNAc
# Outline: as §1
# [28] = molecular target: Gal(b1-4)GalNAc(b1-3)[Fuc(a1-2)]Gal(b1-4)GlcNAc
# Outline: as §1
# Gal(b1-4)Glc = molecular target: Gal(b1-4)Glc
# Outline: as §1
# Gal(b1-4)Glc6S = molecular target: Gal(b1-4)Glc6S
# Outline: as §1
# Gal(b1-4)GlcNAc = molecular target: Gal(b1-4)GlcNAc
# Outline: as §1
# [29] = molecular target: Gal(b1-4)GlcNAc(a1-6)Gal(b1-4)GlcNAc
# Outline: as §1
# Gal(b1-4)GlcNAc(b1-2)Man = molecular target: Gal(b1-4)GlcNAc(b1-2)Man
# Outline: as §1
# [30] = molecular target: Gal(b1-4)GlcNAc(b1-2)Man(a1-3)Man(b1-4)GlcNAc(b1-4)GlcNAc
# Outline: as §1
# [31] = molecular target: Gal(b1-4)GlcNAc(b1-2)Man(a1-3)[Gal(b1-4)GlcNAc(b1-2)Man(a1-6)]Man(b1-4)GlcNAc(b1-4)GlcNAc
# Outline: as §1
# [32] = molecular target: Gal(b1-4)GlcNAc(b1-2)Man(a1-3)[Gal(b1-4)GlcNAc(b1-2)Man(a1-6)]Man(b1-4)GlcNAc(b1-4)[Fuc(a1-6)]GlcNAc
# Outline: as §1
# [33] = molecular target: Gal(b1-4)GlcNAc(b1-2)Man(a1-3)[Gal(b1-4)GlcNAc(b1-2)Man(a1-6)][Gal(b1-4)GlcNAc(b1-4)]Man(b1-4)GlcNAc(b1-4)[Fuc(a1-6)]GlcNAc
# Outline: as §1
# [34] = molecular target: Gal(b1-4)GlcNAc(b1-2)Man(a1-3)[Gal(b1-4)GlcNAc(b1-2)Man(a1-6)][GlcNAc(b1-4)]Man(b1-4)GlcNAc(b1-4)[Fuc(a1-6)]GlcNAc
# Outline: as §1
# [35] = molecular target: Gal(b1-4)GlcNAc(b1-2)Man(a1-3)[GlcNAc(b1-2)Man(a1-6)]Man(b1-4)GlcNAc(b1-4)GlcNAc
# Outline: as §1
# [36] = molecular target: Gal(b1-4)GlcNAc(b1-2)Man(a1-3)[GlcNAc(b1-4)][Gal(b1-4)GlcNAc(b1-2)Man(a1-6)]Man(b1-4)GlcNAc(b1-4)GlcNAc
# Outline: as §1
# [37] = molecular target: Gal(b1-4)GlcNAc(b1-2)Man(a1-3)[Man(a1-6)]Man(b1-4)GlcNAc(b1-4)GlcNAc
# Outline: as §1
# [38] = molecular target: Gal(b1-4)GlcNAc(b1-2)Man(a1-6)Man(b1-4)GlcNAc(b1-4)GlcNAc
# Outline: as §1
# [39] = molecular target: Gal(b1-4)GlcNAc(b1-2)Man(a1-6)[GlcNAc(b1-2)Man(a1-3)]Man(b1-4)GlcNAc(b1-4)GlcNAc
# Outline: as §1
binder,measurement,setting,value
Wzz (Escherichia coli) (protein) MRTWKFPSVRVMMRVENNNVSGQNHDPEQIDLIDLLVQLWRGKMTIIISVIVAIVLAIGYLAVAKEKWTSTAIITQPDVGQIAGYNNAMNVIYGQAAPKVSDLQETLIGRFSSAFSALAETLDNQEEPEKLTIEPSVKNQQLPLTVSYVGQTAEGAQMKLAQYIQQVDDKVNQELEKDLKDNIALGRKNLQDSLRTQEVVAQEQKDLRIRQIQEALQYANQAQVTKPQIQQTGEDITQDTLFLLGSEALESMIKHEATRPLVFSSNYYQTRQNLLDIDNLDVDKLDIHAYLYVMKPTLPIRRDSPKKAITLILAVLLGGMVGAGIVLGRNALRNYNAK,glycan array binding signal (z-score),[1],-0.275
same,glycan array binding signal (z-score),[2],-0.31
same,glycan array binding signal (z-score),[3],0.086
same,glycan array binding signal (z-score),[4],0.434
same,glycan array binding signal (z-score),[5],-0.951
same,glycan array binding signal (z-score),[6],-0.99
same,glycan array binding signal (z-score),[7],-1.01
same,glycan array binding signal (z-score),[8],1.03
same,glycan array binding signal (z-score),[9],0.297
same,glycan array binding signal (z-score),[10],-0.495
same,glycan array binding signal (z-score),[11],-0.217
same,glycan array binding signal (z-score),[12],-0.082
same,glycan array binding signal (z-score),[13],0.376
same,glycan array binding signal (z-score),[14],-0.626
same,glycan array binding signal (z-score),[15],0.399
same,glycan array binding signal (z-score),[16],0.334
same,glycan array binding signal (z-score),Gal(b1-3)GlcNAc6S,0.376
same,glycan array binding signal (z-score),[17],-0.53
same,glycan array binding signal (z-score),[18],2.68
same,glycan array binding signal (z-score),[19],1.53
same,glycan array binding signal (z-score),[20],-1.68
same,glycan array binding signal (z-score),[21],-0.584
same,glycan array binding signal (z-score),[22],0.701
same,glycan array binding signal (z-score),[23],-0.468
same,glycan array binding signal (z-score),[24],-0.967
same,glycan array binding signal (z-score),[25],-0.112
same,glycan array binding signal (z-score),[26],-0.409
same,glycan array binding signal (z-score),Gal(b1-4)Gal,1.14
same,glycan array binding signal (z-score),[27],-0.875
same,glycan array binding signal (z-score),[28],-0.822
same,glycan array binding signal (z-score),Gal(b1-4)Glc,-0.478
same,glycan array binding signal (z-score),Gal(b1-4)Glc6S,1.25
same,glycan array binding signal (z-score),Gal(b1-4)GlcNAc,-0.275
same,glycan array binding signal (z-score),[29],-0.711
same,glycan array binding signal (z-score),Gal(b1-4)GlcNAc(b1-2)Man,0.461
same,glycan array binding signal (z-score),[30],-0.337
same,glycan array binding signal (z-score),[31],-0.148
same,glycan array binding signal (z-score),[32],0.201
same,glycan array binding signal (z-score),[33],-0.765
same,glycan array binding signal (z-score),[34],-0.511
same,glycan array binding signal (z-score),[35],-0.957
same,glycan array binding signal (z-score),[36],0.282
same,glycan array binding signal (z-score),[37],0.051
same,glycan array binding signal (z-score),[38],-0.26
same,glycan array binding signal (z-score),[39],-0.334

# 2 records drawn at random from those above, as already listed:
binder,measurement,setting,value
Wzz (Escherichia coli) (protein) MRTWKFPSVRVMMRVENNNVSGQNHDPEQIDLIDLLVQLWRGKMTIIISVIVAIVLAIGYLAVAKEKWTSTAIITQPDVGQIAGYNNAMNVIYGQAAPKVSDLQETLIGRFSSAFSALAETLDNQEEPEKLTIEPSVKNQQLPLTVSYVGQTAEGAQMKLAQYIQQVDDKVNQELEKDLKDNIALGRKNLQDSLRTQEVVAQEQKDLRIRQIQEALQYANQAQVTKPQIQQTGEDITQDTLFLLGSEALESMIKHEATRPLVFSSNYYQTRQNLLDIDNLDVDKLDIHAYLYVMKPTLPIRRDSPKKAITLILAVLLGGMVGAGIVLGRNALRNYNAK,glycan array binding signal (z-score),Gal(b1-4)GlcNAc,-0.275
same,glycan array binding signal (z-score),[20],-1.68
